PubChem BioAssay AID1671195, Yale University, 2021
This is one part, drawn at random, of about 22,000 reagents tested. Of all reagents, about 1,510 (6.9%) got an active call. 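Active includes knockdowns raising or lowering LDL uptake; positive z-scores mean more uptake, negative mean less.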

Assay: 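Regulators of LDL receptor activity judged by labelled LDL uptake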 (primary screen)
Cell system: human Huh7 hepatoma cells
Reagents: siRNA pool against human genes, 18 nM
Duration: about 2 to 2.5 days of knockdown, then 8 h LDL uptake
Challenge: DiI-labelled LDL at 30 µg/ml for 8 h, in lipoprotein-deficient serum medium
Read-out: 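Per-cell DiI-LDL intensity by automated imaging; well means scaled to the plate median and given as a robust z-score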
Direction: robust z-score: higher = more LDL uptake after knockdown
Call rule: 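a gene counts as active if at least two replicate z-scores exceed ±2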

gene symbol | robust z-score, replicate 1 | robust z-score, replicate 2 | robust z-score, replicate 3 | Call
UIMC1 | 1.95 | 2.89 | 2.5 | active
LIPG | 0.991 | 2.03 | 1.36 | inactive
MYBBP1A | 0.182 | -0.635 | -0.674 | inactive
UTP20 | 0.34 | -0.511 | 0.678 | inactive
PTPN22 | -1.17 | -0.964 | -1.1 | inactive
SEC14L1 | 0.868 | 2.17 | -0.467 | inactive
RAD51AP1 | -0.276 | 0.965 | -0.756 | inactive
NPBWR1 | -0.88 | -1.52 | -1.43 | inactive
LOC338756 (retired record) | 0.189 | 0.0141 | -0.131 | inactive
ZNF721 | -1.81 | -0.885 | -0.949 | inactive
EXOSC10 | -0.569 | -0.735 | 0.317 | inactive
LINC00661 | -0.374 | -1.24 | -1.22 | inactive
CHRM4 | -0.899 | -0.69 | -0.674 | inactive
TMEM41B | 1.83 | 1.8 | 2.27 | inactive
LOC439991 (retired record) | -0.355 | 0.0325 | -0.344 | inactive
TMIGD2 | -0.136 | -0.106 | 0.677 | inactive
ASCL1 | -0.577 | -1.15 | -1.46 | inactive
IGSF23 | -0.511 | -1.18 | -0.648 | inactive
LOC100131554 | -1.34 | -1.98 | -1.44 | inactive
LOC400705 (retired record) | 1.42 | 2.03 | 1.94 | active
ATP5IF1 | 2.31 | 2.02 | 2.44 | active
CD8B | -0.0052 | -0.0359 | -0.395 | inactive
RPL39L | -0.905 | 0.789 | 0.763 | inactive
SEPHS1 | -1.91 | -1.95 | -1.66 | inactive
SEPTIN11 | -1.06 | -0.98 | -0.734 | inactive
GPBAR1 | 0.496 | 4.36 | 3.16 | active
PROB1 | -0.935 | -0.537 | -0.886 | inactive
SLC9A5 | -0.369 | -0.359 | -0.235 | inactive
LOC400729 (retired record) | -0.0477 | -1.47 | -0.548 | inactive
RSPO3 | -1.25 | -1.13 | -1.12 | inactive
MCCC2 | 2.49 | 0.017 | 2.11 | active
KRT18P55 | 1.36 | 2.2 | 1.67 | inactive
SPART | -0.703 | 0.312 | -0.224 | inactive
DPY19L4 | 0.682 | 0.283 | 0.505 | inactive
PSTPIP1 | 0.553 | 0.481 | -0.308 | inactive
DOHH | 3.63 | 2.37 | 2.58 | active
SLC27A1 | -0.0843 | -0.62 | -1.18 | inactive
PDE4C | 1.04 | 0.751 | 0.772 | inactive
TPM3P9 | -0.734 | 0.194 | -0.628 | inactive
FRS2 | 0.697 | 0.345 | 0.271 | inactive
RCCD1 | -0.111 | -0.186 | -0.0847 | inactive
DMBT1 | -0.836 | 0.0593 | -0.39 | inactive
LOC390386 (retired record) | -0.641 | -0.733 | -0.611 | inactive
GCHFR | 0.562 | 0.715 | 1.68 | inactive
NUDT5 | -1.28 | -0.603 | -1.15 | inactive
LINC03048 | 2.85 | 3.2 | 3.71 | active
